Data reported in patent EP0117034 (dated 1984).

Experiment: Boc solid-phase peptide synthesis; MBHA resin; carbodiimides, such as N,N'-diisopropyl carbodiimide
Settings: whole synthesis, TLC and HPLC

[IIe^27]-hpGRF(1―40)-NH2
final HPLC purity: greater than 98%
